According to US5057495A, “Atrial hypotensive peptide” (Queen's University at Kingston, priority 1988, dated 1991):
At least one peptide structure holds a part that was inferred or is arguable (an end, a ring closure or a residue). Bridge positions count the residues as written; N and C are the ends. Ends that are not written are not given here. Peptide text beside a SMILES is read from it.

Columns and labels:
[1] = system: assay rats anesthetized with sodium pentobarbital; assay: I.V. bolus injection into anesthetized bioassay rats: cardiovascular and renal responses; type: in vivo, rat; conditions: for biological response when injected into bioassay rats (diuretic, natriuretic, hypotensive, bradycardic): result in words, concentrations as in FIG. 4 and Table 1
Method: Experiments were performed using male Sprague-Dawley rats, ranging in weight from 270-362 g. The rats were anesthetized by an intraperitional injection of sodium pentobarbital (70 mg.kg-1; MTC Pharmaceuticals, Hamilton, Ont.). Additional small amounts of anesthetic were administered as required in the course of the experiment. Body temperature was maintained by a heating lamp and rectal temperature monitored by a rectal probe. After installing a tracheal cannula, a femoral vein was cannulated and a priming infusion of saline (0.9% NaCl) was administered over a 20 min period (1.1 ml); this was followed by a maintenance saline infusion of 1.2 ml.h-1. The femoral artery was then cannulated for blood pressure measurement (Statham pressure transducer, model P23Db). A catheter was also advanced via the right external jugular vein towards the right heart for bolus injections of vehicle, ANF or the atrial peptide of the present invention (AHP). After tying off the penis, the bladder was cannulated for urine collection. Rates were not used or experiments aborted if the urine became bloody. The EKG was recorded for determination of heart rate.
Urine was collected in preweighed vials and volume calculated by weighing. The time for sequential urine collections was 5 min or, increments of 4 min until there was enough urine volume for electrolyte determinations (0.25 ml or 16 drops). Rat kidneys were removed at the termination of the experiments so that urinary excretion measurements could be normalized for total kidney weight. Measurements of Na+ and K+ were obtained using ion specific electrodes and Cl- was obtained by coulometric titration.
Zero time was established by 40-60 mins from the beginning the priming saline infusion. The control measurements were carried out over 20 mins or, until there was sufficient urine collection for electrolyte determinations. A bolus injection of vehicle, rANP(99-126) or iso-rANP(1-45) or iso-rANP(17-45) was then administered into the jugular vein catheter and the catheter immediately cleared of remaining injectate by a secondary bolus of 0.2 ml saline. The rANP(99-126) was obtained from Armand-Frappier, Montreal. Cardiovascular measurements were analyzed at 5 min intervals during control and at 1, 5, 10, 15 and 20 mins following administration of injectate. […] Thus, residues 17-45 of the native peptide represent a functional, as well as structural, homologue of both ANP and BNP. Moreover, it would appear that residues 1-20 of iso-rANP(1-45) are not required for biological activity. […] Variability of response of assay rats to injected peptides is evident from the rather larger variances (SEM).

[2] = system: antiserum to iso-rANP(1-20) (P2A); assay: Double immunodiffusion / cross reactivity of antiserum raised against P2A; type: binding, rabbit
[3] = biological target: antiserum to iso-rANP(1-20) (P2A); assay: Radioimmunoassay (RIA) with 125I-P2A-Y tracer; type: binding, rabbit; conditions: displacement of 125I-P2A-Y; overnight at 4° C.
[4] = I.V. bolus 0.8 nanomol, peak within 10 min

Compound	biological response when injected into bioassay rats (diuretic, natriuretic, hypotensive, bradycardic) [1]	reaction with antiserum against P2A (precipitin lines / cross reactivity) [2]	50% displacement [3]	% Decrease HR (peak response, average % change ± SEM) [1, 4] [%]	% Increase Cl- Excretion (peak response, average % change ± SEM) [1, 4]	% Increase K+ Excretion (peak response, average % change ± SEM) [1, 4]	% Increase Na+ Excretion (peak response, average % change ± SEM) [1, 4]	% Increase Urine Volume (peak response, average % change ± SEM) [1, 4]	% Decrease MAP (peak response, average % change ± SEM) ([1]; I.V. bolus 0.8 nanomol, peak within 10 min of injection, constant saline infusion) [%]
CC[C@H](C)[C@H](NC(=O)[C@H](CCCNC(=N)N)NC(=O)[C@H](Cc1ccccc1)NC(=O)[C@H](C)NC(=O)[C@H](CO)NC(=O)[C@H](CC(=O)O)NC(=O)[C@H](CCC(N)=O)NC(=O)[C@@H](N)CO)C(=O)N[C@@H](CCC(N)=O)C(=O)N[C@@H](CCC(=O)O)C(=O)N[C@@H](CCCNC(=N)N)C(=O)N[C@@H](CC(C)C)C(=O)N[C@@H](CCCNC(=N)N)C(=O)N[C@@H](CC(N)=O)C(=O)N[C@@H](CO)C(=O)N[C@@H](CCCCN)C(=O)N[C@@H](CCSC)C(=O)N[C@@H](C)C(=O)N[C@@H](Cc1c[nH]cn1)C(=O)N[C@@H](CO)C(=O)O [iso-rANP(1-20), Ser-Gln-Asp-Ser-Ala-Phe-Arg-Ile-Gln-Glu-Arg-Leu-Arg-Asn-Ser-Lys-Met -Ala-His-Ser] (H-SQDSAFRIQERLRNSKMAHS-OH)	did not have any intrinsic biological activity	precipitin lines	25-30 pg/tube						
SQDSAFRIQERLRNSKMAHSSSCFGQKIDRIGAVSRLGCDGLRQF (disulfide 23-39) [synthetic iso-rANP(1-45)]	potent diuretic, natriuretic and hypotensive effects			-7 ± 2	+634 ± 139%	+400 ± 129%	+1009 ± 418%	+828 ± 147%	-16 ± 3
